Test results: PubChem BioAssay AID2685 (National Center for Advancing Translational Sciences (NCATS), 2010)
Some of the results follow. The main result of the screen is listed elsewhere. These columns were measured beside it and carry no call. The list favours compounds with an active or inconclusive main result. Words in brackets tell the shape of the fitted curve; partial curves, single points and poor fits give uncertain potencies. Where a SMILES comes first, the peptide text is derived from it. The star is where a group is joined. Boc = CC(C)(C)OC(=O)*; OtBu = CC(C)(C)O*

Test: qHTS Assay for Lipid Storage Modulators in Drosophila S3 Cells;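 for cell number change: cells counted by Cell Tracker Red CMTPX staining in the red channel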
Details: BODIPY lipid droplet fluorescence, 18-24 h; for cell number change: measured here: cell count max response, cells fed with added oleic acid
Procedure, shortened: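 Drosophila S3 cells got compounds at several concentrations plus oleic acid (400 uM solution). Laser-scanning cytometry with 488 nm excitation read lipid droplets at 500-530 nm and cells at 575-640 nm. Percent activity was relative to 20 uM Triacsin C.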

[1] = measured here: cell number channel AC50, cells fed with added oleic acid
[2] = measured here: lipid fluorescence (Fed channel) AC50, cells fed with added oleic acid

| Structure (SMILES) | cell number change [%] | AC50 [1] | AC50 [2] |
| --- | --- | --- | --- |
| COc1ccc(-c2oc3ccc(-c4cc(OC)c(OC)c(OC)c4)cc3c2C#Cc2ccsc2)cc1 | 58.3 | 25.9 µM [rising, partial curve] |  |
| Clc1ccc(OCc2nn3c(C4CCCCC4)nnc3s2)c(Cl)c1 | 79 | 23.1 µM [rising, partial curve] |  |
| COc1ccc(-c2csc(NC(=O)c3ccc(S(C)(=O)=O)cc3)n2)cc1 | 14.2 |  | 0.0103 µM [rising, full curve, poor fit] |
| Cn1c(=O)c2c(SCc3c(F)cccc3Cl)nc(CC(C)(C)C)nc2n(C)c1=O | 31.1 | 2.59 µM [rising, full curve] |  |
| CCN1C(=O)c2cccc3c(S(=O)(=O)NCCc4c[nH]c5ccccc45)ccc1c23 |  |  | 6.51 µM [rising, single point] |
| CC(=O)Nc1ccc(S(=O)(=O)N2CCN(c3ncccn3)CC2)cc1 | 0.293 |  | 0.0651 µM [rising, full curve, poor fit] |
| COc1cc2cc(CN(Cc3cccs3)C(=S)Nc3cccc(C)c3)c(=O)[nH]c2cc1OC | 12.2 |  | 5.8 µM [rising, partial curve] |
| COc1ccc(SC[C@H](C)CN2CC[C@H](C(C)(C)C)CCC2=O)cc1 | -27.4 | 0.092 µM [falling, full curve, poor fit] | 0.259 µM [falling, full curve, poor fit] |
| N#Cc1ccc(NC(=O)CCc2ccc(S(=O)(=O)N3CCOCC3)cc2)cc1 | 7.98 | 0.00461 µM [rising, full curve, poor fit] |  |
| Cc1cccc(C)c1NC(=O)/C(C#N)=C/c1ccsc1 | -18.1 |  | 18.4 µM [falling, single point] |
| CN1C(=O)/C(=C/c2ccccc2OCc2ccc(C(=O)O)cc2)NC1=S | -40.7 |  |  |
| COc1ccccc1C(CNC(=O)C(CCSC)NS(=O)(=O)c1ccccc1F)N1CCCC1 (stereo not drawn) | -9.19 |  |  |
| COC(=O)C1=C(C)NC(=S)NC1c1ccc(OCC(=O)N2CCCCC2)c(OC)c1 (stereo not drawn) | -0.587 |  |  |
| Cc1ccc(C(C)C)c(OCCCn2ccnc2C)c1 | 3.23 |  | 29.1 µM [rising, single point] |
| CCN1CCN(Cc2c(OC)ccc3ccccc23)CC1 | -33.6 | 0.461 µM [falling, full curve, poor fit] | 7.31 µM [falling, partial curve, poor fit] |
| CC(C)(C)OC(=O)N1CCN(C(=O)c2nc[nH]c2C(=O)N2CCN(C(=O)OC(C)(C)C)CC2)CC1 | 8.1 |  | 0.326 µM [rising, full curve, poor fit] |
| NCC(O)CN(c1ccccc1)c1ccccc1 (stereo not drawn) | -28.4 |  | 29.1 µM [falling, single point] |
| CN(C)c1ccc(CN2CCCCC2)cc1 |  |  | 0.651 µM [falling, full curve, poor fit] |
| COc1ccc(NC2CCCN(C(=O)c3ccc(CSC)o3)C2)cc1OC (stereo not drawn) | -32.5 | 8.2 µM [falling, partial curve] |  |
| CC(Sc1nnc(COc2ccc(Cl)cc2)n1Cc1ccco1)C(=O)N1CCNC1=O (stereo not drawn) | -6.48 |  | 18.4 µM [rising, single point] |

| Structure (SMILES) | cell number change [%] | AC50 [1] | AC50 [2] |
| --- | --- | --- | --- |
| COc1cc(CC(=O)NC(c2ccccc2)c2ccccc2)cc(OC)c1OC | 11.7 |  | 1.46 µM [rising, full curve] |
| Cc1cc(NC(=O)CCC(=O)N(Cc2ccco2)C(C(=O)NC2CCCC2)c2ccc(F)cc2)no1 (stereo not drawn) | 0.435 |  | 6.51 µM [rising, single point] |
| Cc1cc(OCC(=O)N2CCN(c3ncccn3)CC2)ccc1Cl | 22.8 | 0.259 µM [rising, partial curve, poor fit] |  |
| COc1ccc(/C=N/NC(=O)c2nn(-c3ccc(Cl)cc3)c(=O)c3c(N)scc23)cc1 | 44.5 |  |  |
| Clc1ccc(-c2c[n+](Cc3ccc(Br)cc3)c3n2CCCCC3)cc1 | -27.2 |  | 18.4 µM [falling, single point] |
| CCn1cc(C2C3=C(CC(C)(C)CC3=O)N(c3ccccc3)C3=C2C(=O)CC(C)(C)C3)c(C)n1 | 24.7 |  | 0.103 µM [falling, full curve, poor fit] |
| CCOc1ccc(NC(=O)c2ccc(NC(=O)c3cn4c5c(c(N6CCN(C)CC6)c(F)cc5c3=O)OCC4C)cc2)cc1 (stereo not drawn) | 19.7 |  | 32.6 µM [rising, single point] |
| COc1ccc(CNS(=O)(=O)c2cc3c(cc2Cl)NC(=O)CO3)cc1 | 5.76 |  | 29.1 µM [rising, single point] |
| CC(C)CCOc1ccc(C(CC(N)=O)C(=O)O)cc1 (stereo not drawn) | -3.23 | 0.58 µM [falling, single point] | 0.731 µM [falling, full curve] |
| COc1ccc(OCCC(=O)OCC(=O)NC2CCCCCCC2)cc1 | 137 | 29.1 µM [rising, partial curve, poor fit] |  |
| CC(C)(C)NC(=O)C(c1cccs1)N(C(=O)c1csnn1)c1cccc(F)c1 (stereo not drawn) | -7.02 |  | 0.259 µM [falling, partial curve, poor fit] |
| Cc1ccccc1C(=O)O/N=C(\N)Cc1cccs1 | 26.5 |  |  |
| Cc1cc(-c2ccccc2)nc2cc(C(N)=O)nn12 | 15.7 |  | 5.8 µM [rising, partial curve] |
| COC(=O)C(Cc1ccc(O)cc1)NC(=O)C(CC(=O)OC(C)(C)C)NC(=O)OC(C)(C)C (stereo not drawn) (Boc-Asp(OtBu)-Tyr-OMe; configuration not given here) | -19.2 |  | 8.2 µM [falling, partial curve] |
| COc1ccccc1N(CC(O)Cn1ccnc1C)S(=O)(=O)c1ccccc1 (stereo not drawn) | -36.2 | 29.1 µM [falling, single point] |  |
| O=C(CSc1nc2ccc([N+](=O)[O-])cc2s1)NCC1CCCO1 (stereo not drawn) | -21.9 |  | 6.51 µM [falling, single point] |
| Cc1cc(C)cc(NC(=S)N(CCN(C)C)C(C)c2cccnc2)c1 (stereo not drawn) | 38.3 | 29.1 µM [rising, single point] |  |
| CCCn1nc(NC(=O)C(C)C)c2cc3cc(OC)ccc3nc21 | -9.91 |  | 0.58 µM [falling, single point] |
| COc1cc(/C=N/NC(=S)NC(C)C)ccc1OCC(=O)Nc1c(C)cc(C)cc1C | 18.8 |  | 29.1 µM [rising, single point] |
| CCOC(=O)c1cccc(NC(=O)CSc2nnc(COc3ccccc3)n2CC)c1 | -38.3 | 23.1 µM [falling, single point] | 29.1 µM [falling, partial curve, poor fit] |

4 structures already listed, sorted by molecular weight, rising:

| Structure (SMILES) | cell number change [%] | AC50 [1] | AC50 [2] |
| --- | --- | --- | --- |
| COc1cc(CC(=O)NC(c2ccccc2)c2ccccc2)cc(OC)c1OC | 11.7 |  | 1.46 µM [rising, full curve] |
| CC(Sc1nnc(COc2ccc(Cl)cc2)n1Cc1ccco1)C(=O)N1CCNC1=O (stereo not drawn) | -6.48 |  | 18.4 µM [rising, single point] |
| COc1cc2cc(CN(Cc3cccs3)C(=S)Nc3cccc(C)c3)c(=O)[nH]c2cc1OC | 12.2 |  | 5.8 µM [rising, partial curve] |
| CCOc1ccc(NC(=O)c2ccc(NC(=O)c3cn4c5c(c(N6CCN(C)CC6)c(F)cc5c3=O)OCC4C)cc2)cc1 (stereo not drawn) | 19.7 |  | 32.6 µM [rising, single point] |

Additional structures follow:

| Structure (SMILES) | cell number change [%] | AC50 [1] | AC50 [2] |
| --- | --- | --- | --- |
| Cc1sc(NC(=O)COc2ccccc2)c(C#N)c1-c1ccccc1 | 18.4 |  | 29.1 µM [rising, partial curve, poor fit] |
| O=C(CCCN1C(=O)c2cccc3cccc(c23)C1=O)N1CCN(Cc2ccc3c(c2)OCO3)CC1 | 49.9 |  |  |
| O=C1Nc2ccccc2N(O)N1c1cc(-c2ccccc2)[nH]n1 | 39.3 |  |  |
| CN(C)c1ccc(C(C#N)c2ccccc2)nn1 (stereo not drawn) | 18.7 |  | 0.651 µM [rising, full curve, poor fit] |
| O=C(N/N=C/c1ccc(-c2ccccc2[N+](=O)[O-])o1)c1cccnc1 | 84.5 | 10.3 µM [rising, partial curve] | 0.291 µM [rising, full curve] |
| O=C1C2C3C=CC(C3)C2C(=O)N1c1cccc(-c2nc3ccccc3o2)c1 (stereo not drawn) | 5.31 |  | 4.11 µM [rising, partial curve, poor fit] |
| CC(=O)Nc1ccc(S(=O)(=O)N2CCN(S(=O)(=O)N3CCC(C)CC3)CC2)cc1 | 22.7 |  | 20.6 µM [falling, single point] |
| CCCCSc1nc2c(cc1C#N)CCC2 | 216 | 16.4 µM [rising, partial curve] |  |
| N#C/C(=C\c1ccc(-c2ccc(C(=O)O)cc2)o1)C(=O)Nc1ccc(F)cc1 | 128 | 29.1 µM [rising, single point] |  |
| Cc1ccn2c(=O)nc(SCC(=O)Nc3cccc4ccccc34)nc2c1 | 55.8 | 29.1 µM [rising, single point] |  |
| CCn1cnc2sc(C(=O)N3CCN(Cc4ccc5c(c4)OCO5)CC3)c(C)c2c1=O | 23.6 |  | 29.1 µM [rising, single point] |
| COc1ccc(C(=O)OCC(=O)Nc2ccc3[nH]c(=O)[nH]c3c2)cc1 | 5.72 |  | 29.1 µM [rising, single point] |
| CSc1nc2nc3c(cn2n1)C(=O)CC(c1ccccc1)C3 (stereo not drawn) | 40.5 | 6.51 µM [rising, partial curve, poor fit] | 2.31 µM [rising, full curve] |
| CC(C)(C)NC(=O)C1Cc2ccccc2CN1S(=O)(=O)c1ccc(F)cc1 (stereo not drawn) | -10.5 | 0.0651 µM [rising, full curve, poor fit] |  |
| COc1ccc(CCNC(=O)CCCCn2c(=O)[nH]c3ccccc3c2=O)cc1OC | -20.6 |  |  |
| CCC(C)NC(=O)c1ccc(CSc2nc3ccncc3n2Cc2ccc(F)cc2)cc1 (stereo not drawn) | 1.83 |  | 18.4 µM [falling, single point] |
| CC(=O)NC(c1ccc(Cl)cc1)c1c(O)ccc2ccc(O)cc12 (stereo not drawn) | -26.3 |  | 0.00411 µM [falling, full curve, poor fit] |
| Cc1cc(S(=O)(=O)NCCc2ccccc2)c(C)s1 | -31.9 | 14.6 µM [falling, partial curve, poor fit] | 29.1 µM [falling, partial curve, poor fit] |
